Measurements as given in US20210261618A1 (TAIAN CITY QIHANG BIOTECHNOLOGY CO., priority 2018, published 2021).
Strings that start with PEPTIDE1 are HELM notation: dots part the residues, brackets hold end groups and non-standard residues.

Experiment: general procedure: Fmoc solid-phase peptide synthesis
Conditions: whole synthesis

Substance: PEPTIDE1{R.V.L.N.G.P.E.E.E.A.A.A.P.A.E}$$$$V2.0
- final HPLC purity: >98.5%
- final purity (method not given) (HPLC): greater than 99%
